Some results were stated once for a whole list of compounds, not compound by compound. At least one structure is not confirmed: it was looked up by name or label, or the drawing left a doubt.
Test system: sweet taste
Test: Preliminary sulfamate analogue Sweetness Detection Threshold (SDT) estimation, sip-and-spit, one experienced subject
Format: in vivo
Conditions: 1,000 ppm in water
Procedure: Sensory studies that were carried out on the N-substituted sulfamic acid salts included 1) preliminary sulfamate analogue Sweetness Detection Threshold (SDT) estimation, 2) refined Sweetness Detection Threshold (SDT) estimation, 3) N-substituted sulfamic acid salts mixed with 6% sucrose Sweetness Enhancement Test and 4) repeat of step 3. A 1,000 ppm sulfamate analogue solution was prepared by dissolution of 20 mg sulfamate analogue in 20 mL purified water. An aliquot (10 mL) of this solution was diluted to 20 mL with water to obtain a 500 ppm solution. Additional 1:1 serial dilutions step were used to obtain 250, 125, 62.5, 31.2 and 15.6 ppm solutions. These solutions were then tasted in ascending order of concentration by one experienced subject by using a sip-and-spit protocol. The subject's estimated SDT was determined to be at the lowest concentration at which sweetness was definitely observed.

CC1CCCCC1NS(=O)(=O)[O-].[Na+] (stereo not shown) [sulfamate 2, sodium 1H-2-methyl cyclohexyl sulfamate]
sweet taste, sugar equivalent: 1-2 % sugar equivalent

Reference: patent US8383183B2, “Sweetness enhancers, sweetness enhanced sweetener compositions, methods for their formulation, and uses” (The Coca-Cola Company, priority 2007, dated 2013)
